Data as given in PubChem BioAssay AID504764 (Drosophila RNAi Screening Center, 2011).
The deposit covers about 22,000 reagents; this is a random part of those that have a named target and a result. In the full data, 403 (1.9%) are marked active. 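Unnormalised raw counts per well; ratio z-scores behind the hit calls and whether each hit raises or lowers signal are not deposited.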 The record does not give: the amount of reagent.

- Assay: 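Knock-downs that raise or lower a Notch target reporter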 (primary screen)
- Cell system: Drosophila Kc167 cells
- Reagents: long dsRNA against Drosophila genes
- Timing: about 5 days (4 days dsRNA, then 24 h after transfection)
- Conditions: transfection of constitutively active membrane-tethered Notch lacking the extracellular domain, read 24 h later
- Measurement: 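Firefly luciferase from an E(spl)m3 reporter with active Notch, plus control-promoter and uninduced reporter wells for normalisation; unnormalised counts, duplicate wells a and b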
- Scale: induced reporter light, run 1, well a and induced reporter light, run 1, well b: higher = more light from the Notch target reporter with active Notch; control promoter light, run 1, well a and control promoter light, run 1, well b: higher = more light from the viral control promoter (cell number, transfection, viability); uninduced reporter light, run 1, well a: higher = more light from the Notch target reporter without active Notch
- Call rule: 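Wells with low control signal or poorly matching duplicates excluded; duplicates averaged; per source plate, z beyond ±2 for induced/control log2 ratio or beyond ±1.8 for induced/uninduced marks a hit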
- Meaning of the calls: active = modifier hit (raised or lowered Notch signal); inactive = not a hit

For CG9643 (GeneID 33504) [DRSC00722], the values are induced reporter light, run 1, well a = 2.46e5; induced reporter light, run 1, well b = 1.90e5; control promoter light, run 1, well a = 2.32e5; control promoter light, run 1, well b = 2.33e5; uninduced reporter light, run 1, well a = 14665; inactive. Depletion of GluRIIA (GeneID 33788) [DRSC03334] came out at: induced reporter light, run 1, well a = 1.57e5; induced reporter light, run 1, well b = 1.24e5; control promoter light, run 1, well a = 1.71e5; control promoter light, run 1, well b = 1.80e5; uninduced reporter light, run 1, well a = 9090; inactive. Depletion of CG32507 (GeneID 318060) [DRSC20421] came out at: induced reporter light, run 1, well a = 1.23e5; induced reporter light, run 1, well b = 1.20e5; control promoter light, run 1, well a = 1.26e5; control promoter light, run 1, well b = 1.14e5; uninduced reporter light, run 1, well a = 8195; inactive. Silencing of CG32647 (GeneID 326226) [DRSC19690] came out at: induced reporter light, run 1, well a = 1.39e5; induced reporter light, run 1, well b = 1.36e5; control promoter light, run 1, well a = 2.75e5; control promoter light, run 1, well b = 2.27e5; uninduced reporter light, run 1, well a = 11455; inactive. Depletion of CG32647 (GeneID 326226) [DRSC19878] came out at: induced reporter light, run 1, well a = 84170; induced reporter light, run 1, well b = 92640; control promoter light, run 1, well a = 2.11e5; control promoter light, run 1, well b = 1.80e5; uninduced reporter light, run 1, well a = 6235; inactive. For CG32240 (GeneID 317933) [DRSC08093], the entry reads induced reporter light, run 1, well a = 1.94e5; induced reporter light, run 1, well b = 1.84e5; control promoter light, run 1, well a = 1.75e5; control promoter light, run 1, well b = 1.88e5; uninduced reporter light, run 1, well a = 12478; inactive.

Silencing of Idgf6 (GeneID 36868) [DRSC07360] came out at: induced reporter light, run 1, well a = 99210; induced reporter light, run 1, well b = 95050; control promoter light, run 1, well a = 1.77e5; control promoter light, run 1, well b = 2.00e5; uninduced reporter light, run 1, well a = 7295; inactive.

No new results follow: an excerpt of the list.
CG32647 (GeneID 326226) [DRSC19690] → induced reporter light, run 1, well a: 1.39e5; induced reporter light, run 1, well b: 1.36e5; control promoter light, run 1, well a: 2.75e5; control promoter light, run 1, well b: 2.27e5; uninduced reporter light, run 1, well a: 11455; call: inactive
CG32647 (GeneID 326226) [DRSC19878] → induced reporter light, run 1, well a: 84170; induced reporter light, run 1, well b: 92640; control promoter light, run 1, well a: 2.11e5; control promoter light, run 1, well b: 1.80e5; uninduced reporter light, run 1, well a: 6235; call: inactive

Continued:
Knock-down of CG43347 (GeneID 31991) [DRSC17982] gave: induced reporter light, run 1, well a = 1.01e5; induced reporter light, run 1, well b = 86845; control promoter light, run 1, well a = 1.79e5; control promoter light, run 1, well b = 1.02e5; uninduced reporter light, run 1, well a = 8275; inactive. After knock-down of CG43347 (GeneID 31991) [DRSC18446], the screen gave induced reporter light, run 1, well a = 1.20e5; induced reporter light, run 1, well b = 1.15e5; control promoter light, run 1, well a = 1.80e5; control promoter light, run 1, well b = 1.85e5; uninduced reporter light, run 1, well a = 8945; inactive. Knock-down of CG43347 (GeneID 31991) [DRSC22656] resulted in: inactive. Depletion of CG42784 (GeneID 326165) [DRSC02534] gave: induced reporter light, run 1, well a = 2.69e5; induced reporter light, run 1, well b = 2.52e5; control promoter light, run 1, well a = 2.00e5; control promoter light, run 1, well b = 2.20e5; uninduced reporter light, run 1, well a = 16940; inactive. For CG42784 (GeneID 326165) [DRSC02535], the values are induced reporter light, run 1, well a = 17105; induced reporter light, run 1, well b = 17970; control promoter light, run 1, well a = 16920; control promoter light, run 1, well b = 15188; uninduced reporter light, run 1, well a = 4005; inactive.
